The target of the assay is T1, recombinant L-selectin Fc chimera (UniProt P14151).
T1 sequence: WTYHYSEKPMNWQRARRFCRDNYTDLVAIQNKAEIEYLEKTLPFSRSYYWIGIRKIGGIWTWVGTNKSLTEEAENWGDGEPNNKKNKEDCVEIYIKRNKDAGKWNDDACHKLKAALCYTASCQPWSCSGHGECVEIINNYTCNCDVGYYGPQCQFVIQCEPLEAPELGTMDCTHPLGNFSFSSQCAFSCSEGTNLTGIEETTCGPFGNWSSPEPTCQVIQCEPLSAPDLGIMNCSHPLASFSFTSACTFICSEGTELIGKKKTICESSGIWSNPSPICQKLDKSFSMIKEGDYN
As to the kind of experiment: virion capture on immunomagnetic beads; protein G Dynabeads armed with 0.5 μg of recombinant Fc chimera (P-, E-, L-selectin or MAdCAM-1); virus-containing supernatant incubated 1-2 h at room temperature; washed with FBS-PBS; bead-associated virus lysed and p24 read by AlphaLISA; only the target purified.

Results are given in words; binding and its absence hold for the method and conditions named. Some results given as binding are weak or reduced against the parent protein; the word gives no strength. Where a sequence is shown, tags or fusion partners need not be part of it.

The source of these data is article PMC9123692.

B1: P-selectin glycoprotein ligand-1 (PSGL-1/CD162), incorporated into HIV-1 NL4-3 virions produced by transfection of HEK293T cells (protein, UniProt Q14242 42-412)
chain: QATEYEYLDYDFLPETEPPEMLRNSTDTTPLTGPGTPESTTVEPAARRSTGLDAGGAVTELTTELANMGNLSTDSAAMEIQTTQPAATEAQTTQPVPTEAQTTPLAATEAQTTRLTATEAQTTPLAATEAQTTPPAATEAQTTQPTGLEAQTTAPAAMEAQTTAPAAMEAQTTPPAAMEAQTTQTTAMEAQTTAPEATEAQTTQPTATEAQTTPLAAMEALSTEPSATEALSMEPTTKRGLFIPFSVSSVTHKGIPMAASNLSVNYPVGAPDHISVKQCLLAILILALVATIFFVCTVVLAVRLSRKGHMYPVRNYSPTEMVCISSLLPDGGEGPSATANGGLSKAKSPGLTPEPREDREGDDLTLHSFLP
For B1, the binding entry is reported as “binds”.

B2: P-selectin glycoprotein ligand-1 (PSGL-1/CD162), endogenous, incorporated into HIV-1 IIIB virions produced in T cell lines (protein, UniProt Q14242 42-412)
chain: QATEYEYLDYDFLPETEPPEMLRNSTDTTPLTGPGTPESTTVEPAARRSTGLDAGGAVTELTTELANMGNLSTDSAAMEIQTTQPAATEAQTTQPVPTEAQTTPLAATEAQTTRLTATEAQTTPLAATEAQTTPPAATEAQTTQPTGLEAQTTAPAAMEAQTTAPAAMEAQTTPPAAMEAQTTQTTAMEAQTTAPEATEAQTTQPTATEAQTTPLAAMEALSTEPSATEALSMEPTTKRGLFIPFSVSSVTHKGIPMAASNLSVNYPVGAPDHISVKQCLLAILILALVATIFFVCTVVLAVRLSRKGHMYPVRNYSPTEMVCISSLLPDGGEGPSATANGGLSKAKSPGLTPEPREDREGDDLTLHSFLP
As for B2, the binding entry is “binds”.

B3: P-selectin glycoprotein ligand-1 (PSGL-1/CD162), endogenous, incorporated into HIV-1 IIIB virions produced in primary PBMC (protein, UniProt Q14242 42-412)
chain: QATEYEYLDYDFLPETEPPEMLRNSTDTTPLTGPGTPESTTVEPAARRSTGLDAGGAVTELTTELANMGNLSTDSAAMEIQTTQPAATEAQTTQPVPTEAQTTPLAATEAQTTRLTATEAQTTPLAATEAQTTPPAATEAQTTQPTGLEAQTTAPAAMEAQTTAPAAMEAQTTPPAAMEAQTTQTTAMEAQTTAPEATEAQTTQPTATEAQTTPLAAMEALSTEPSATEALSMEPTTKRGLFIPFSVSSVTHKGIPMAASNLSVNYPVGAPDHISVKQCLLAILILALVATIFFVCTVVLAVRLSRKGHMYPVRNYSPTEMVCISSLLPDGGEGPSATANGGLSKAKSPGLTPEPREDREGDDLTLHSFLP
With B3, the binding entry is on record as “binds”.
